PubChem BioAssay AID1671195 | Yale University | 2021
This is an unselected part of about 22,000 reagents. Over the whole deposit, about 1,510 (6.9%) got an active call. 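Active includes knockdowns raising or lowering LDL uptake; positive z-scores mean more uptake, negative mean less.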 A number with no mark means an inactive call.

Test: 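Regulators of LDL receptor activity judged by labelled LDL uptake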 (primary screen)
Cells: human Huh7 hepatoma cells
Knock-down reagent: siRNA pool against human genes, 18 nM
Time to read-out: about 2 to 2.5 days of knockdown, then 8 h LDL uptake
Conditions: DiI-labelled LDL at 30 µg/ml for 8 h, in lipoprotein-deficient serum medium
Measurement: 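Per-cell DiI-LDL intensity by automated imaging; well means scaled to the plate median and given as a robust z-score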
Scale: robust z-score: higher = more LDL uptake after knockdown
Call rule: 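a gene counts as active if at least two replicate z-scores exceed ±2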

After knock-down of PHF12, the record shows robust z-score, replicate 1 = -1.32; robust z-score, replicate 2 = -0.982; robust z-score, replicate 3 = -1.16.
Silencing of MYO5C gave: robust z-score, replicate 1 = -0.334; robust z-score, replicate 2 = 0.0579; robust z-score, replicate 3 = 0.37.
Against KLHL14 the deposit lists robust z-score, replicate 1 = -1.07; robust z-score, replicate 2 = -0.874; robust z-score, replicate 3 = 0.743.
After knock-down of ZNF593 the results were robust z-score, replicate 1 = -0.416; robust z-score, replicate 2 = -0.559; robust z-score, replicate 3 = 0.31.
Knock-down of CEP95 came out at: robust z-score, replicate 1 = -0.29; robust z-score, replicate 2 = -0.0869; robust z-score, replicate 3 = 0.389.
After knock-down of BALR6, the record shows robust z-score, replicate 1 = -0.0965; robust z-score, replicate 2 = 0.164; robust z-score, replicate 3 = -0.272.
For CILK1, the values are robust z-score, replicate 1 = 1.42; robust z-score, replicate 2 = 0.88; robust z-score, replicate 3 = 1.74.
Depletion of SMIM29 resulted in: robust z-score, replicate 1 = -0.697; robust z-score, replicate 2 = -0.942; robust z-score, replicate 3 = -0.857.
After knock-down of ZNF414 the results were robust z-score, replicate 1 = 1.3; robust z-score, replicate 2 = 0.472; robust z-score, replicate 3 = 1.26.
Silencing of LOC400792 (retired record) resulted in: robust z-score, replicate 1 = -0.584; robust z-score, replicate 2 = -0.434; robust z-score, replicate 3 = -0.637.
BGLAP gave robust z-score, replicate 1 = 0.0586; robust z-score, replicate 2 = -0.188; robust z-score, replicate 3 = 0.194.
Against CER1 the deposit lists robust z-score, replicate 1 = -0.108; robust z-score, replicate 2 = -0.708; robust z-score, replicate 3 = 0.0718.
Knock-down of CAMSAP3 came out at: robust z-score, replicate 1 = -1.91 (active); robust z-score, replicate 2 = -2.06; robust z-score, replicate 3 = -1.73.
Silencing of PRAP1 came out at: robust z-score, replicate 1 = -0.854; robust z-score, replicate 2 = -0.246; robust z-score, replicate 3 = -0.0384.
For PPFIA2, the values are robust z-score, replicate 1 = 1.89; robust z-score, replicate 2 = 1.54; robust z-score, replicate 3 = 2.02.
ALDH9A1 gave robust z-score, replicate 1 = -0.41; robust z-score, replicate 2 = -0.719; robust z-score, replicate 3 = -0.464.

Reprinted from the entries so far for reference:
ZNF414 — robust z-score, replicate 1 = 1.3; robust z-score, replicate 2 = 0.472; robust z-score, replicate 3 = 1.26
LOC400792 (retired record) — robust z-score, replicate 1 = -0.584; robust z-score, replicate 2 = -0.434; robust z-score, replicate 3 = -0.637
